Measurements taken from US20050004126A1 (priority 2001, published 2005).
The structures given here were assigned with low confidence; some may be wrong.
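Further: inhibition of enzymatic thiopeptolide substrate cleavage (100 µM) in pH 6.0 MES buffer with CaCl2 and DTNB, comparing hydrolysis with versus without inhibitor.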

Each compound was assayed against MMP-13CD (catalytic domain of collagenase 3) (Homo sapiens, UniProt P45452) (assay: Thiopeptolide hydrolysis assay, MMP-13). Details: read-out: MMP 13 IC50 μM; Table III.
Compound Cc1ccc(-n2c(=O)[nH]c3sc(C(=O)OCc4ccccc4)c(C)c3c2=O)cc1 has an IC50 of 10 µM.

Same assay, conditions: read-out: MMP13 IC50 μM; Table IVb
COc1ccc(CNC(=O)c2ccc3c(c2)c(=O)n(Cc2ccc(OC)c(F)c2)c(=O)n3C)cc1 showed an IC50 of 0.0058 µM. Cn1c(=O)n(Cc2ccccc2)c(=O)c2cc(C(=O)NCc3ccc(O)cc3)ccc21 was tested, and the IC50 was 0.02 µM. COc1ccc(CNC(=O)c2ccc3c(c2)c(=O)n(CCC(=O)O)c(=O)n3C)cc1 gave an IC50 of 9.7 µM. With Cn1c(=O)n(Cc2ccncc2)c(=O)c2cc(C(=O)NCc3ccc4c(c3)OCO4)ccc21 the IC50 was 0.011 µM. COc1ccc(CNC(=O)c2ccc3c(c2)c(=O)n(Cc2ccncc2)c(=O)n3C)cc1 showed an IC50 of 0.021 µM. COc1ccc(CNC(=O)c2ccc3c(c2)c(=O)n(Cc2ccc(N(S(C)(=O)=O)S(C)(=O)=O)cc2)c(=O)n3C)cc1 showed an IC50 of 0.075 µM. COc1ccc(CNC(=O)c2ccc3c(c2)c(=O)n(Cc2ccc(C(=O)OCC(C)(C)CN(C)C)cc2)c(=O)n3C)cc1 was tested, and the IC50 was 0.06 µM.
